Measurements: PMC6125387
Results are given in words; binding and its absence hold for the method and conditions named. In cells and extracts the contact can be indirect. Some results given as binding are weak or reduced against the parent protein; the word gives no strength. For some assays here: Sequences can lack the tags named with a protein.

Experiments:
[1] = biological target: CRAF, epitope-tagged form (UniProt P04049); experiment: co-IP; MCF-7 cells transfected with epitope-tagged PTPRκ and CRAF (1 μg each); precipitated with anti-FLAG, or pre-immune serum as control; 20 mM HEPES pH 8, 2 mM MgCl2, 2 mM EGTA, 150 mM NaCl, 2.5 mM CHAPS; detected by immunoblot
[2] = biological target: CRAF, endogenous (human (endogenous in MCF-7)) (UniProt P04049); experiment: co-IP; endogenous proteins in MCF-7 cells; control precipitations with pre-immune serum or beads only; 20 mM HEPES pH 8, 2 mM MgCl2, 2 mM EGTA, 150 mM NaCl, 2.5 mM CHAPS; detected by immunoblot

| Binder | binding [1] | binding [2] |
| --- | --- | --- |
| Protein Tyrosine Phosphatase receptor kappa (PTPRκ), epitope-tagged form (protein, UniProt Q15262 27-1439) AQGQFSAGGCTFDDGPGACDYHQDLYDDFEWVHVSAQEPHYLPPEMPQGSYMIVDSSDHDPGEKARLQLPTMKENDTHCIDFSYLLYSQKGLNPGTLNILVRVNKGPLANPIWNVTGFTGRDWLRAELAVSTFWPNEYQVIFEAEVSGGRSGYIAIDDIQVLSYPCDKSPHFLRLGDVEVNAGQNATFQCIATGRDAVHNKLWLQRRNGEDIPVAQTKNINHRRFAASFRLQEVTKTDQDLYRCVTQSERGSGVSNFAQLIVREPPRPIAPPQLLGVGPTYLLIQLNANSIIGDGPIILKEVEYRMTSGSWTETHAVNAPTYKLWHLDPDTEYEIRVLLTRPGEGGTGLPGPPLITRTKCAEPMRTPKTLKIAEIQARRIAVDWESLGYNITRCHTFNVTICYHYFRGHNESKADCLDMDPKAPQHVVNHLPPYTNVSLKMILTNPEGRKESEETIIQTDEDVPGPVPVKSLQGTSFENKIFLNWKEPLDPNGIITQYEISYSSIRSFDPAVPVAGPPQTVSNLWNSTHHVFMHLHPGTTYQFFIRASTVKGFGPATAINVTTNISAPTLPDYEGVDASLNETATTITVLLRPAQAKGAPISAYQIVVEELHPHRTKREAGAMECYQVPVTYQNAMSGGAPYYFAAELPPGNLPEPAPFTVGDNRTYQGFWNPPLAPRKGYNIYFQAMSSVEKETKTQCVRIATKAATEEPEVIPDPAKQTDRVVKIAGISAGILVFILLLLVVILIVKKSKLAKKRKDAMGNTRQEMTHMVNAMDRSYADQSTLHAEDPLSITFMDQHNFSPRYENHSATAESSRLLDVPRYLCEGTESPYQTGQLHPAIRVADLLQHINLMKTSDSYGFKEEYESFFEGQSASWDVAKKDQNRAKNRYGNIIAYDHSRVILQPVEDDPSSDYINANYIDGYQRPSHYIATQGPVHETVYDFWRMIWQEQSACIVMVTNLVEVGRVKCYKYWPDDTEVYGDFKVTCVEMEPLAEYVVRTFTLERRGYNEIREVKQFHFTGWPDHGVPYHATGLLSFIRRVKLSNPPSAGPIVVHCSAGAGRTGCYIVIDIMLDMAEREGVVDIYNCVKALRSRRINMVQTEEQYIFIHDAILEACLCGETAIPVCEFKAAYFDMIRIDSQTNSSHLKDEFQTLNSVTPRLQAEDCSIACLPRNHDKNRFMDMLPPDRCLPFLITIDGESSNYINAALMDSYRQPAAFIVTQYPLPNTVKDFWRLVYDYGCTSIVMLNEVDLSQGCPQYWPEEGMLRYGPIQVECMSCSMDCDVINRIFRICNLTRPQEGYLMVQQFQYLGWASHREVPGSKRSFLKLILQVEKWQEECEEGEGRTIIHCLNGGGRSGMFCAIGIVVEMVKRQNVVDVFHAVKTLRNSKPNMVEAPEQYRFCYDVALEYLESS | binds |  |
| Protein Tyrosine Phosphatase receptor kappa (PTPRκ), endogenous (protein, UniProt Q15262 27-1439) AQGQFSAGGCTFDDGPGACDYHQDLYDDFEWVHVSAQEPHYLPPEMPQGSYMIVDSSDHDPGEKARLQLPTMKENDTHCIDFSYLLYSQKGLNPGTLNILVRVNKGPLANPIWNVTGFTGRDWLRAELAVSTFWPNEYQVIFEAEVSGGRSGYIAIDDIQVLSYPCDKSPHFLRLGDVEVNAGQNATFQCIATGRDAVHNKLWLQRRNGEDIPVAQTKNINHRRFAASFRLQEVTKTDQDLYRCVTQSERGSGVSNFAQLIVREPPRPIAPPQLLGVGPTYLLIQLNANSIIGDGPIILKEVEYRMTSGSWTETHAVNAPTYKLWHLDPDTEYEIRVLLTRPGEGGTGLPGPPLITRTKCAEPMRTPKTLKIAEIQARRIAVDWESLGYNITRCHTFNVTICYHYFRGHNESKADCLDMDPKAPQHVVNHLPPYTNVSLKMILTNPEGRKESEETIIQTDEDVPGPVPVKSLQGTSFENKIFLNWKEPLDPNGIITQYEISYSSIRSFDPAVPVAGPPQTVSNLWNSTHHVFMHLHPGTTYQFFIRASTVKGFGPATAINVTTNISAPTLPDYEGVDASLNETATTITVLLRPAQAKGAPISAYQIVVEELHPHRTKREAGAMECYQVPVTYQNAMSGGAPYYFAAELPPGNLPEPAPFTVGDNRTYQGFWNPPLAPRKGYNIYFQAMSSVEKETKTQCVRIATKAATEEPEVIPDPAKQTDRVVKIAGISAGILVFILLLLVVILIVKKSKLAKKRKDAMGNTRQEMTHMVNAMDRSYADQSTLHAEDPLSITFMDQHNFSPRYENHSATAESSRLLDVPRYLCEGTESPYQTGQLHPAIRVADLLQHINLMKTSDSYGFKEEYESFFEGQSASWDVAKKDQNRAKNRYGNIIAYDHSRVILQPVEDDPSSDYINANYIDGYQRPSHYIATQGPVHETVYDFWRMIWQEQSACIVMVTNLVEVGRVKCYKYWPDDTEVYGDFKVTCVEMEPLAEYVVRTFTLERRGYNEIREVKQFHFTGWPDHGVPYHATGLLSFIRRVKLSNPPSAGPIVVHCSAGAGRTGCYIVIDIMLDMAEREGVVDIYNCVKALRSRRINMVQTEEQYIFIHDAILEACLCGETAIPVCEFKAAYFDMIRIDSQTNSSHLKDEFQTLNSVTPRLQAEDCSIACLPRNHDKNRFMDMLPPDRCLPFLITIDGESSNYINAALMDSYRQPAAFIVTQYPLPNTVKDFWRLVYDYGCTSIVMLNEVDLSQGCPQYWPEEGMLRYGPIQVECMSCSMDCDVINRIFRICNLTRPQEGYLMVQQFQYLGWASHREVPGSKRSFLKLILQVEKWQEECEEGEGRTIIHCLNGGGRSGMFCAIGIVVEMVKRQNVVDVFHAVKTLRNSKPNMVEAPEQYRFCYDVALEYLESS |  | binds |
